# Test results reported in PubChem BioAssay AID504467 (National Center for Advancing Translational Sciences (NCATS), 2011).
# Out of some 330,000 compounds screened, about 7,700 (2.3%) were called active. The inconclusive results got no clear call from the source; some entries with a clear call stand among them for comparison. The call rests on the fitted dose curve; in most records, active means well fitted inhibition curve with a large enough effect; inconclusive means small, poorly fitted or top-dose-only effect, or effect the other way; inactive means flat fitted curve, though single readings scatter. Where the call is inconclusive, the potency comes from a doubtful curve fit.
# Test: qHTS screen for small molecules that inhibit ELG1-dependent DNA repair in human embryonic kidney (HEK293T) cells expressing luciferase-tagged ELG1; further: nearly all actives have a fitted effect of over 55% in size
# Conditions: HEK293T ELG1-luciferase reporter, luminescence, 16 h, DNA damage induced by 5-fluorouridine; activity change, negative = inhibition: at 46.1 µM (top of the series)
# In short: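 Overnight (16 hr) co-exposure of 2,000 cells/well to 5-fluorouridine and compound at 37 °C preceded detection. Luciferase was quantified via ONE-Glo luminescence; loss of signal denotes inhibition.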
# On the % scale 0 is the no-effect control and ±100 the full control effect; potency means the concentration at half of the fitted maximal effect.
Compound,Potency,"activity change, negative = inhibition"
Nc1nonc1-c1noc(-c2ccccc2)n1,"inconclusive: 20.6 µM [activator, partial curve]",–
CCCCN(C)S(=O)(=O)c1ccc(C(=O)N=c2sc3cc(NC(C)=O)ccc3n2C)cc1,–,inactive: -0.965%
O=C(CNC(=O)COc1ccccc1)NCc1cccnc1,–,inactive: 0.497%
CCC(=O)N(Cc1cc(=O)[nH]c2ccccc12)c1ccc(OC)cc1,–,inactive: -15.4%
CCNc1oc(-c2ccccc2F)nc1S(=O)(=O)c1ccccc1,–,inactive: -6.75%
CCc1ccc(C(=O)C[n+]2cccc3cc(OC)ccc32)cc1,–,inactive: -10.4%
O=C(Nc1ccc(C(=O)N2CCCCC2)cc1)c1ccc([N+](=O)[O-])cc1,"inconclusive: 23.1 µM [inhibitor, partial curve]",–
Cc1ccc(C(=O)N/C(=C\c2ccc(-c3ccc(Br)cc3)o2)C(=O)NCCCN(C)C)cc1,–,inactive: -17.1%
O=C(Nc1cccc(Cl)c1)c1ccc(OC(=S)N2CCOCC2)cc1,"inconclusive: 0.92 µM [activator, full curve, poor fit]",–
N#C/C=C1\n2c(nc3ccccc32)OC12CCCCC2,"inconclusive: 20.6 µM [inhibitor, partial curve, poor fit]",–
CC(C)Cc1cc(C(=O)Nc2c(F)cc(F)cc2Br)no1,"inconclusive: 16.4 µM [activator, single point]",–
C(=N\n1cnnc1)/c1ccc(OCc2ccccc2)cc1,"inconclusive: 29.1 µM [activator, single point]",–
Fc1cccc(Cl)c1CSc1nnc(-c2ccncc2)o1,"inconclusive: 20.6 µM [activator, partial curve]",–
Cn1c(=O)n(C)c2cc([N+](=O)[O-])c(N3CCN(C(=O)c4cccc(F)c4)CC3)cc21,"inconclusive: 11.6 µM [inhibitor, partial curve]",–
Cc1ccc(NC(=O)N2CCC(c3ccccc3)C2)cc1C (centres undefined),"inconclusive: 3.26 µM [activator, full curve]",–
COc1cc(CNCc2cccc3ccccc23)cc(OC)c1,–,inactive: 0.91%
O=[N+]([O-])c1ccc(N2CCN(C(=S)Nc3ccc(F)cc3)CC2)cc1,"inconclusive: 29.1 µM [inhibitor, single point]",–
COc1ccc2sc(NCc3ccccc3)nc2c1,"inconclusive: 16.4 µM [activator, partial curve]",–
Cc1ccc(-c2nc3ccccc3c(=O)n2CCCn2ccnc2)cc1,"inconclusive: 29.1 µM [activator, single point]",–
CC(=O)c1ccc(N2CCN(C(=O)c3ccc(S(=O)(=O)NCc4ccco4)cc3)CC2)cc1,"inconclusive: 23.1 µM [inhibitor, partial curve, poor fit]",–
O=C(N/N=C/c1c(O)ccc2ccccc12)c1cccnc1,active: 3.66 µM,–
Cc1cccc(N(CC(=O)NCCc2ccccc2)C(=O)c2csnn2)c1,–,inactive: 0.147%
Cc1cc2nc3n(c2cc1C)CC1CC(C(=O)NCc2ccccc2)N(C)C31 (centres undefined),–,inactive: 10.5%

Compound,Potency,"activity change, negative = inhibition"
O=C(c1ccc2nc(N3CCOCC3)sc2c1)N1CCC(Cc2ccccc2)CC1,–,inactive: -17.8%
COc1ccc(S(=O)(=O)N2CCN(Cc3cc(OC)c(OC)c(OC)c3)CC2)cc1,"inconclusive: 11.2 µM [inhibitor, partial curve, poor fit]",–
CCCc1cc(=O)oc2cc(OCc3ccc(C(=O)O)cc3)ccc12,"inconclusive: 23.1 µM [activator, partial curve]",–
Cc1c(/C=N/Nc2ccc(C(=O)O)cc2)c2ccccc2n1C,"inconclusive: 10.3 µM [activator, partial curve]",–
O=C(c1ccc(Cl)c(S(=O)(=O)N2CCOCC2)c1)N(Cc1nnc(-c2ccccc2Cl)o1)C1CC1,"inconclusive: 25.9 µM [inhibitor, single point]",–
O=C(N=C1c2ccccc2CN1c1ccc(F)c(Cl)c1)c1cccnc1Cl,"inconclusive: 20.6 µM [activator, partial curve]",–
Cc1ccc(-n2nc(C)c(NC(=O)CCl)c2C)cc1C,"inconclusive: 29.1 µM [inhibitor, single point]",–
CN(CCOC(=O)/C=C/c1ccccc1)C(C)(C)C,"inconclusive: 16.4 µM [activator, partial curve, poor fit]",–
CCc1ccc(CN(C)C(=O)CCc2nnc(COc3ccccc3)o2)cc1,"inconclusive: 18.3 µM [activator, partial curve]",–
O=C(CN1C(=O)NC2(CCCCCC2)C1=O)NCCc1ccccc1,–,inactive: 14.2%
Cc1ccn2c(-c3n[nH]c(=S)n3C)c(C)nc2c1,–,inactive: -6.11%
CC(C)(C)NC(=O)NC(=O)CN1CCC(Cc2ccccc2)CC1,"inconclusive: 16.4 µM [inhibitor, partial curve, poor fit]",–
Cc1ccc(NC(=O)Nc2ccc3c(c2)OCO3)cc1F,"inconclusive: 4.61 µM [activator, partial curve]",–
O=C1/C(=C/c2ccccc2Cl)SC(=S)N1CCC(=O)N1CCCCC1CCO (centres undefined),–,inactive: -0.693%
O=C(CSc1ccc(Br)cc1)NC1CCCCCC1,"inconclusive: 16.4 µM [activator, single point]",–
CCCCCCn1nc(C(=O)N(CC(C)C)c2c(N)n(CCCC)c(=O)[nH]c2=O)c2ccccc2c1=O,"inconclusive: 16.4 µM [inhibitor, partial curve]",–
N#CCOc1ccc2oc(-c3ccco3)cc(=O)c2c1,"inconclusive: 29.1 µM [activator, single point]",–
Cc1ccc(OCCCSc2ncccn2)cc1C,"inconclusive: 14.6 µM [activator, partial curve]",–
Cc1ccccc1NC(=O)c1ccc2c(c1)N(C)CCS2,"inconclusive: 16.4 µM [activator, partial curve]",–
O=C(Nc1ccc(Cl)c(Cl)c1)OCc1cccnc1,"inconclusive: 5.8 µM [activator, single point]",–
O=C(NCCc1ccccn1)c1ccc(OC2CCN(CCc3ccccc3)CC2)cc1,"inconclusive: 4.11 µM [activator, partial curve]",–
COc1cccc(OCC(O)CN2CCC(CN3C(=O)c4cccc5cccc(c45)C3=O)CC2)c1 (centres undefined),"inconclusive: 29.1 µM [inhibitor, single point]",–
COc1ccc(C(=O)O/N=C(\N)c2ccccn2)cc1[N+](=O)[O-],"inconclusive: 5.8 µM [activator, partial curve]",–

Compound,Potency,"activity change, negative = inhibition"
Cc1ccc(-c2nnn(CC(=O)Nc3ccccc3N3CCOCC3)n2)cc1,"inconclusive: 23.1 µM [inhibitor, single point]",–
O=C(COc1ccccc1C(=O)c1cnn(-c2ccccc2)c1)Nc1ccccc1,"inconclusive: 3.26 µM [inhibitor, partial curve, poor fit]",–
COc1cc(C(C(=O)NCC2CCCO2)N(C(=O)Cn2nnc3ccccc32)c2ccc(C(C)=O)cc2)ccc1O (centres undefined),"inconclusive: 20.6 µM [activator, single point]",–
COC(=O)c1ccc(-c2ccc(/C=N/N3C(=O)C4C5C=CC(C6CC56)C4C3=O)o2)cc1 (centres undefined),"inconclusive: 29.1 µM [inhibitor, single point]",–
CN(C)C(=O)c1ccc(NC(=O)COC(=O)C2(c3ccccc3)CCCC2)cc1,"inconclusive: 6.51 µM [inhibitor, single point]",–
Clc1ccccc1N1CCN(Cc2ccco2)CC1,"inconclusive: 29.1 µM [activator, partial curve, poor fit]",–
CCN(CC)C(=O)CSC(=Nc1ccccc1F)NC#N,"inconclusive: 20.6 µM [activator, partial curve]",–
CC(C)c1ccc(NC(=O)C2CCN(S(=O)(=O)c3ccc4c(c3)NC(=O)CO4)CC2)cc1,–,inactive: -2.52%
CCCCN1C2=NCCCN2c2cc(C)c(C)cc21,"inconclusive: 1.84 µM [inhibitor, partial curve, poor fit]",–
Cc1cccc(-c2oc3ccc(-c4ccc5c(c4)OCO5)cc3c2C(=O)OCc2ccc(O)cc2)c1,–,inactive: 7.2%
Cc1ccc(C)[n+](CC(=O)c2ccc(-c3ccccc3)cc2)c1,active: 7.3 µM,–
COc1ccc(CNC(=O)c2cc(SC)ccc2Cl)cc1OC,"inconclusive: 18.3 µM [inhibitor, partial curve]",–
CCCC1CCc2c(sc(N)c2C(N)=O)C1 (centres undefined),–,inactive: -1.59%
COc1ccccc1OCc1ccc(C(=O)NN)o1,–,inactive: 15.3%
O=C(CCN1CCc2ccccc21)c1ccc2c(c1)OCCO2,"inconclusive: 2.91 µM [activator, single point]",–
Cc1ccc(CN(Cc2ccc(C)o2)C(=S)NCC(=O)O)cc1,"inconclusive: 0.146 µM [activator, single point]",–
CCOC(=O)c1c(CN2CCN(CCO)CC2)n(C)c2cc(Br)c(OC)cc12,–,inactive: 10.7%
COc1ccc(-c2c(C)nn(-c3ccccc3)c2N)cc1,"inconclusive: 16.4 µM [activator, partial curve]",–
CC(C)Cn1c(=O)c(C(=O)NCc2ccccn2)c(O)c2ccccc21,"inconclusive: 29.1 µM [inhibitor, single point]",–
Cc1nn2c(NCc3ccccn3)cc(C(C)C)nc2c1-c1ccccc1,"inconclusive: 18.3 µM [inhibitor, single point]",–
CCOc1ccc(C2C(C#N)=C(N)Oc3n[nH]c(C)c32)cc1OC(=O)C1CC1 (centres undefined),"inconclusive: 29.1 µM [activator, single point]",–
COc1cccc(C(=O)NCCS(=O)(=O)N2CCC(C)CC2)c1,–,inactive: 9.17%
COc1ccc(-n2c(SCC(=O)NC3CC3)nc3ccccc3c2=O)cc1OC,"inconclusive: 6.51 µM [inhibitor, single point]",–

# Some of these compounds in order of molecular weight, descending:
Compound,Potency,"activity change, negative = inhibition"
COc1cc(C(C(=O)NCC2CCCO2)N(C(=O)Cn2nnc3ccccc32)c2ccc(C(C)=O)cc2)ccc1O (centres undefined),"inconclusive: 20.6 µM [activator, single point]",–
COC(=O)c1ccc(-c2ccc(/C=N/N3C(=O)C4C5C=CC(C6CC56)C4C3=O)o2)cc1 (centres undefined),"inconclusive: 29.1 µM [inhibitor, single point]",–
COc1ccccc1OCc1ccc(C(=O)NN)o1,–,inactive: 15.3%
